In PMC8773821:
Results are given in words; binding and its absence hold for the method and conditions named. In cells and extracts the contact can be indirect. Some binding calls cover weakened binding; strength is not graded here. For some assays here: Tags and fused reporters may be left off the sequences shown.

Protein sequences, listed by entry. Tags and fused reporters are not part of them.
UniProt P19474: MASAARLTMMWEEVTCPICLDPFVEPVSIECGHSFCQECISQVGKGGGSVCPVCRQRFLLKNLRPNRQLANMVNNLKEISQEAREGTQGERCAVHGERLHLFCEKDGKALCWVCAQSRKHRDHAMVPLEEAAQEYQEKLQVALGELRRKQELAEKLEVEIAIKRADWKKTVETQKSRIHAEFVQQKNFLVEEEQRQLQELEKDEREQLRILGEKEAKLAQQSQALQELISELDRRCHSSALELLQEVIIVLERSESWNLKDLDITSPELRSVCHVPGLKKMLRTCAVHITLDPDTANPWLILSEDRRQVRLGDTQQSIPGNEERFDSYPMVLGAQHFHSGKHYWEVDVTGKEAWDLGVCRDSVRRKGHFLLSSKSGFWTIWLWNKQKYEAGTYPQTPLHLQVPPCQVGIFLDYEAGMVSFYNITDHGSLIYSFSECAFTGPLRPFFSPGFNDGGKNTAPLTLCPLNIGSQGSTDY

T1: pregnane X receptor (PXR), endogenous in HepG2 cells (human (endogenous in HepG2)) (UniProt O75469)
T1 sequence: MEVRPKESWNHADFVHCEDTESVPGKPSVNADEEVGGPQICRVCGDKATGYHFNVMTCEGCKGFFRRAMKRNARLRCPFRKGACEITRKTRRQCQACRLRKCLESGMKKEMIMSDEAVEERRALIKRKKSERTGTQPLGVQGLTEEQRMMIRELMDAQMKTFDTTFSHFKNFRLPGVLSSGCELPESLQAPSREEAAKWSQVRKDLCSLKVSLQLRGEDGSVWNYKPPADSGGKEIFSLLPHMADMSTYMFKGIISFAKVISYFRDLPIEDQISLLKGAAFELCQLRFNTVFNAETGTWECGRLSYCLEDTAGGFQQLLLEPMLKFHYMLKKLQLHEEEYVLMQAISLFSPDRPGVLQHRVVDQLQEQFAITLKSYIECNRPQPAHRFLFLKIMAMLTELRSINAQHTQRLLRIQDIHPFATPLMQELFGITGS

B1: pregnane X receptor (PXR), full-length, from the plasmid pcDNA3.1-EGFP-PXR-Flag (protein, UniProt O75469 1-434)
chain: T1 sequence
B2: cytoplasmic CAR retention protein (DNAJC7), endogenous in HepG2 cells (protein, UniProt Q99615 1-494)
chain: MAAAAECDVVMAATEPELLDDQEAKREAETFKEQGNAYYAKKDYNEAYNYYTKAIDMCPKNASYYGNRAATLMMLGRFREALGDAQQSVRLDDSFVRGHLREGKCHLSLGNAMAACRSFQRALELDHKNAQAQQEFKNANAVMEYEKIAETDFEKRDFRKVVFCMDRALEFAPACHRFKILKAECLAMLGRYPEAQSVASDILRMDSTNADALYVRGLCLYYEDCIEKAVQFFVQALRMAPDHEKACIACRNAKALKAKKEDGNKAFKEGNYKLAYELYTEALGIDPNNIKTNAKLYCNRGTVNSKLRKLDDAIEDCTNAVKLDDTYIKAYLRRAQCYMDTEQYEEAVRDYEKVYQTEKTKEHKQLLKNAQLELKKSKRKDYYKILGVDKNASEDEIKKAYRKRALMHHPDRHSGASAEVQKEEEKKFKEVGEAFTILSDPKKKTRYDSGQDLDEEGMNMGDFDPNNIFKAFFGGPGGFSFEASGPGNFFFQFG

Columns and labels:
[1] = biological target: tripartite motif containing 21 (TRIM21), full-length (human) (UniProt P19474); assay: co-IP; HEK 293T cells cotransfected with PXR and TRIM21 for 48 h; whole-cell lysates in RIPA with PMSF; precipitated on agarose beads with anti-Flag (the legend says PXR antibody), anti-TRIM21 or IgG; blotted with anti-PXR or anti-TRIM21
[2] = biological target: T1, pregnane X receptor (PXR), endogenous in HepG2 cells (human (endogenous in HepG2)); assay: co-IP; endogenous proteins in HepG2 lysates; cells treated with kenpaullone (5 uM) or dinaciclib (4 uM) for 24 h or left untreated; precipitated with anti-PXR, anti-Hsp90 or anti-DNAJC7 antibody; blotted with the same three antibodies

Binder | binding [1] | binding [2]
B1 | binds | 
B2 |  | binds
